Non-standard residues stand in square brackets, D forms with d. Bpa = N[C@@H](Cc1ccc(C(=O)c2ccccc2)cc1)C(=O)O; Dmt = Cc1cc(O)cc(C)c1C[C@H](N)C(=O)O; Orn = NCCC[C@H](N)C(=O)O; βAla = NCCC(=O)O
Key:
[1] = general procedure: Fmoc solid-phase peptide synthesis; FMPB-AM resin (KGFF13); MBHA-resin (KGFF14-16); 2-chlorotrityl chloride resin (dipeptide for KGFF12); DIC/HOBt; HCTU/NMM; DIC/oxyma-pure; settings: whole synthesis
[2] = general procedure: Fmoc solid-phase peptide synthesis; MBHA; DIC/HOBt; HCTU/NMM; DIC/oxyma-pure; settings: whole synthesis

Substance	isolated yield [1] [%]	isolated yield [2] [%]
7-OH-Tic-D-Arg-Aba-β-Ala-Bpa-Phe-NH2	1	
Guanidyl-Dmt-D-Arg-Aba-β-Ala-Bpa-Phe-NH2	10	
H-Dmt-D-Arg-1AnaGly-Bpa-Phe-NH2	1	
H-Dmt-D-Arg-1AnaGly-Bpa-Trp-NH2	1	
H-Dmt-D-Arg-1AnaGly-Bpa-Val-NH2	4	
H-Dmt-D-Arg-Aba-Gly-Arg-Phe-NH2	15	
H-Dmt-D-Arg-Aba-Gly-Arg-Phe-OH	20	
H-Dmt-D-Arg-Aba-Gly-Orn-Phe-NH2	17	
H-Dmt-D-Arg-Aba-b-Ala-Apa-Phe-NH2	20	
H-Dmt-D-Arg-Aba-b-Ala-Arg-Phe-NH2	18	
H-Dmt-D-Arg-Aba-b-Ala-Bpa-Phe-NH2	17	
H-Dmt-D-Arg-Aba-b-Ala-Lys(Bim)-Phe-NH2		22
H-Dmt-D-Arg-Aba-b-Ala-Lys(Box)-Phe-NH2		43
H-Dmt-D-Arg-Aba-b-Ala-Lys(Bth)-Phe-NH2		39
H-Dmt-D-Arg-Aba-β-Ala-Bpa-D-Phe-NH2	1	
H-Dmt-D-Arg-Aba-β-Ala-Bpa-Ile-NH2	15	
H-Dmt-D-Arg-Aba-β-Ala-Bpa-Leu-NH2	24	
H-Dmt-D-Arg-Aba-β-Ala-Bpa-Phe-β-Ala-NH2	1	
H-Dmt-D-Arg-Aba-β-Ala-Bpa-Trp-NH2	15	
H-Dmt-D-Arg-Aba-β-Ala-Bpa-Tyr-NH2	28	
H-Dmt-D-Arg-Aba-β-Ala-Bpa-Val-NH2	8	

Substance	isolated yield [1] [%]	isolated yield [2] [%]
H-Dmt-D-Arg-Aba-β-Ala-D-Bpa-Phe-NH2	2	
H-Dmt-D-Arg-Aba-β-Ala-THIQ-Phe-NH2	4	
H-Dmt-D-Arg-AbaGABA-Bpa-Phe-NH2	2	
H-Dmt-D-Arg-AbaGABA-Bpa-Trp-NH2	1	
H-Dmt-D-Arg-AbaGABA-Bpa-Val-NH2	3	
H-Dmt-D-Arg-Phe-N(Me)-D-Ala-Bpa-Phe-NH2	11	
H-Dmt-D-Arg-Phe-N(Me)-β-Ala-Bpa-Phe-NH2	5	
H-Dmt-D-Arg-Phe-N(Me)Gly-Bpa-Phe-NH2	27	
H-Dmt-D-Arg-Phe-N(Me)Gly-Bpa-Val-NH2	22	
H-Dmt-D-Bpa-Aba-β-Ala-Bpa-Phe-NH2	4	
H-Dmt-D-Lys(Nic)-Aba-β-Ala-Bpa-Phe-NH2	21	
H-Dmt-D-Lys-Aba-β-Ala-Bpa-Phe-NH2	9	
H-Dmt-D-Orn-Aba-β-Ala-Bpa-Phe-NH2	11	
H-Dmt-D-Pro-Aba-β-Ala-Bpa-Phe-NH2	9	
H-Dmt-D-hArg-Aba-β-Ala-Bpa-Phe-NH2	14	
H-Dmt-N(Me)-D-Ala-1AnaGly-Bpa-Phe-NH2	3	
H-Dmt-N(Me)-D-Ala-Aba-β-Ala-Bpa-Phe-NH2	2	
H-Dmt-N(Me)-D-Ala-AbaGABA-Bpa-Phe-NH2	6	
H-Dmt-Nlys-Aba-β-Ala-Bpa-Phe-NH2	19	
H-[Dmt][dR]F[Orn]F-NH2	27	
H-[Dmt][dR]F[βAla][Bpa]F-NH2	2	
